Assay results published in the supplement of paper PMC12067093, “Discovery and optimisation of a covalent ligand for TRIM25 and its application to targeted protein ubiquitination” (Chemical Science, 2025).
This is one part of the list.

Sequences of proteins named here, by UniProt entry; tags and fusion partners are left off. A change or cut given only in a name is not applied to a line headed by its entry.
UniProt O75592: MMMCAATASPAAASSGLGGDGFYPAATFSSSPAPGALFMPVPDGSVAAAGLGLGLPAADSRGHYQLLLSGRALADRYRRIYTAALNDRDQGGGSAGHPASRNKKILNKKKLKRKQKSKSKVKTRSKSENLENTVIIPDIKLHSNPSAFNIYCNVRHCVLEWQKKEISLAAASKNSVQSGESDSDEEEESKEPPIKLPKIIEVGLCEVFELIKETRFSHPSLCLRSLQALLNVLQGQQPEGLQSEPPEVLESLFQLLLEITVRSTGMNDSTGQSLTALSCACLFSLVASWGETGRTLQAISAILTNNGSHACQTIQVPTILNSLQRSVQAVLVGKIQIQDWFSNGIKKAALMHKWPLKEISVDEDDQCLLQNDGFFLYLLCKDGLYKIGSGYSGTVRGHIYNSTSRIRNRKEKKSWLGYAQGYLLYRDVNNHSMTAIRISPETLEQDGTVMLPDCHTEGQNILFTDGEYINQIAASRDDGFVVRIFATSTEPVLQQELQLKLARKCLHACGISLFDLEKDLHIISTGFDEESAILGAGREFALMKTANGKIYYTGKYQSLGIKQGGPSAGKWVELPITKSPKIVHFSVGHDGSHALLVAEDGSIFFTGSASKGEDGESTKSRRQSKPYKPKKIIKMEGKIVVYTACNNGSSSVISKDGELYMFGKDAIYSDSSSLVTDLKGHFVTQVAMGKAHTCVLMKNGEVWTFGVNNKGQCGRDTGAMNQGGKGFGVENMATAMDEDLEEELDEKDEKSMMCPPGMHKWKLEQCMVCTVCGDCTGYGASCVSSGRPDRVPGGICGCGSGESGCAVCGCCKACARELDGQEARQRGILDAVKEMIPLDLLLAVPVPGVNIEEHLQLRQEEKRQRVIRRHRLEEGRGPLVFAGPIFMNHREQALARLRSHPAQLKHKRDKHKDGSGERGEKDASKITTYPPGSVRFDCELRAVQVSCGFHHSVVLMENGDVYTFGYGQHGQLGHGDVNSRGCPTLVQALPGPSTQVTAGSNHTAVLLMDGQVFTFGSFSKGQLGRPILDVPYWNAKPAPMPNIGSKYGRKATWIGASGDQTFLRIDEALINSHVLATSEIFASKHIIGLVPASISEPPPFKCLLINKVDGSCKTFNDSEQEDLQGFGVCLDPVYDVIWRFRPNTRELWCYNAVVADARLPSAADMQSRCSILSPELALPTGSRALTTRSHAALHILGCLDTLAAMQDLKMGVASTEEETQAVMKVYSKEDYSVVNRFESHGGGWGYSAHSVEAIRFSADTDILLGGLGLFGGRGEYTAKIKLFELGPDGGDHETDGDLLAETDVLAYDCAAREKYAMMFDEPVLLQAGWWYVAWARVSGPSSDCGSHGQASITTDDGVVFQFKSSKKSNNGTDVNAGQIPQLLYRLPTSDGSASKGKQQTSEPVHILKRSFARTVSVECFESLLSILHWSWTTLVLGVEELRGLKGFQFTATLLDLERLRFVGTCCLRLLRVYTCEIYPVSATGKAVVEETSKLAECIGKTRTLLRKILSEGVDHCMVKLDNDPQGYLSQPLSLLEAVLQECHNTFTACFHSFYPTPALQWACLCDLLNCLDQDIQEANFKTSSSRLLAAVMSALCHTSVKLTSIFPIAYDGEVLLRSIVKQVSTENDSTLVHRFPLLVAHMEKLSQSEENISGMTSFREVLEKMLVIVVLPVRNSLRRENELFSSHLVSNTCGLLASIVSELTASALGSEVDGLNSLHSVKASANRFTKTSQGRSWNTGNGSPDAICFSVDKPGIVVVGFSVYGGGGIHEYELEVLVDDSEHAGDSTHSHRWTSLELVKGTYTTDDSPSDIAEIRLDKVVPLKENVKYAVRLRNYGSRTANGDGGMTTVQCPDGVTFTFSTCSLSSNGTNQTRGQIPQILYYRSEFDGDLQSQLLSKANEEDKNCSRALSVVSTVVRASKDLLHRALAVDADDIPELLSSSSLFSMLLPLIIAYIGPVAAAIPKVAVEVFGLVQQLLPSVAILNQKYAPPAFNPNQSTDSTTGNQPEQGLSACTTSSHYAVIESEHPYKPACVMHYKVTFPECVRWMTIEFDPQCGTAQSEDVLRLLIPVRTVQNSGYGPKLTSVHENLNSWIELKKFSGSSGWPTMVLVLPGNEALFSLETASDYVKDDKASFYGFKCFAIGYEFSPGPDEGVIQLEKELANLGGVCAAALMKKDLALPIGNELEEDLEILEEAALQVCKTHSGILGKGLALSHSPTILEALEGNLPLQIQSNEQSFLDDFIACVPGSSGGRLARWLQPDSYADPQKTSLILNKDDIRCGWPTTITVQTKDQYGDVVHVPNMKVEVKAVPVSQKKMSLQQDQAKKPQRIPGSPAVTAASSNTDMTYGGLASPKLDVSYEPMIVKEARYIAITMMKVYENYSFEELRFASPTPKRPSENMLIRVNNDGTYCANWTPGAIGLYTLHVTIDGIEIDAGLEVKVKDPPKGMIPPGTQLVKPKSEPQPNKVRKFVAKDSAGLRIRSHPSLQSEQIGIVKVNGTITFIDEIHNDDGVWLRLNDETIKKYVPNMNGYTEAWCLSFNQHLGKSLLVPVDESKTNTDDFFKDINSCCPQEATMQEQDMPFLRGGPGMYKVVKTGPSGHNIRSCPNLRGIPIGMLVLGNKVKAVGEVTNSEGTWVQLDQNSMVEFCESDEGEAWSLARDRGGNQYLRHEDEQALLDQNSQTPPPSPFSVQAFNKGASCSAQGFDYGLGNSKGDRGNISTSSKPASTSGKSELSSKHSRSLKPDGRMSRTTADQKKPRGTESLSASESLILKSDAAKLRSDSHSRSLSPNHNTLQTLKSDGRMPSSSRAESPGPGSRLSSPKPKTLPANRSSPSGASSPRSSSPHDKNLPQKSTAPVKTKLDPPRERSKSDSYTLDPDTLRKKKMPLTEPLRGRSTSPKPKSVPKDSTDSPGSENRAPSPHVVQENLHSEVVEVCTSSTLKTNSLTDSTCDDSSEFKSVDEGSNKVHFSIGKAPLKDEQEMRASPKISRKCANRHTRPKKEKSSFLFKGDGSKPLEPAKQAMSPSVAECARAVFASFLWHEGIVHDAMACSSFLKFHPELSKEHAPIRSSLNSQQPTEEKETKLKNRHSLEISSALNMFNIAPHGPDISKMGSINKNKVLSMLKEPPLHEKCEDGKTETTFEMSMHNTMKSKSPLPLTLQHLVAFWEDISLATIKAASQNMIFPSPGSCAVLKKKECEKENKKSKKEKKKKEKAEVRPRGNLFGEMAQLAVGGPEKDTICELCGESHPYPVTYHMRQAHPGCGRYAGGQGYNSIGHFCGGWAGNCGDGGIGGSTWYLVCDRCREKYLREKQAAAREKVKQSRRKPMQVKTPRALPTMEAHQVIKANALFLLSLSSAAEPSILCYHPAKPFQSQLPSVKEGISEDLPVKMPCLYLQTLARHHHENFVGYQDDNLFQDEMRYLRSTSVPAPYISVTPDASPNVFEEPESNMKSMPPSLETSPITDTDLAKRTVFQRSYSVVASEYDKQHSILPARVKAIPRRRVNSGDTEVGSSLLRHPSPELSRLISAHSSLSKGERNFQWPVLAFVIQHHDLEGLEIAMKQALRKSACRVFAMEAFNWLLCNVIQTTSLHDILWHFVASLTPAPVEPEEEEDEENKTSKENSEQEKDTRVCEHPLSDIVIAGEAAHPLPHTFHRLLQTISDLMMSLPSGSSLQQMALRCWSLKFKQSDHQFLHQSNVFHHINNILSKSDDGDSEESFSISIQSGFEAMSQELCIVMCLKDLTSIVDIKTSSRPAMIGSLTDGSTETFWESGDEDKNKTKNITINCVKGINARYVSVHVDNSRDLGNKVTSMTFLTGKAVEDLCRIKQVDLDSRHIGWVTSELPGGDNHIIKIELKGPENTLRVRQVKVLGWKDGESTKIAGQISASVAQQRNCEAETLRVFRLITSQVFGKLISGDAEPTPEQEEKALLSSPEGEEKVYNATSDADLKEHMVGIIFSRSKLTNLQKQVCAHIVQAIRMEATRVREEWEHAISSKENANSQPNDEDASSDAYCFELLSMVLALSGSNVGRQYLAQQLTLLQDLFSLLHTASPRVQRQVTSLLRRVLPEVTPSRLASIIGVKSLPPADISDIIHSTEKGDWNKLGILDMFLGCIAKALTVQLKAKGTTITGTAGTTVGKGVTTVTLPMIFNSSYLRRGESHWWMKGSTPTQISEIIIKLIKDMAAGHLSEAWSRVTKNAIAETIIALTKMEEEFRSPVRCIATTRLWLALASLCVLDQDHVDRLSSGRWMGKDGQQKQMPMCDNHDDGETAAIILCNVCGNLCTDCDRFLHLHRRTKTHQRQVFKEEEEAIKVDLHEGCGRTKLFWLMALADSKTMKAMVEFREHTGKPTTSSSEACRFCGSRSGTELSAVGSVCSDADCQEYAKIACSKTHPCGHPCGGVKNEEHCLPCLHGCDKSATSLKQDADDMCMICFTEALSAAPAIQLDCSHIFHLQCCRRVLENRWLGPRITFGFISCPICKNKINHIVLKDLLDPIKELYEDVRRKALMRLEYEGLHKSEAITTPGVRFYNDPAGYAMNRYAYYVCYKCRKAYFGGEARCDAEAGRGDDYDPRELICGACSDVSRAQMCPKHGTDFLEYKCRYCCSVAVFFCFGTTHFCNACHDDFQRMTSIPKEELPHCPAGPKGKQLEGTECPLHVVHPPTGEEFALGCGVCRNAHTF
UniProt P43246, whole entry, looked up: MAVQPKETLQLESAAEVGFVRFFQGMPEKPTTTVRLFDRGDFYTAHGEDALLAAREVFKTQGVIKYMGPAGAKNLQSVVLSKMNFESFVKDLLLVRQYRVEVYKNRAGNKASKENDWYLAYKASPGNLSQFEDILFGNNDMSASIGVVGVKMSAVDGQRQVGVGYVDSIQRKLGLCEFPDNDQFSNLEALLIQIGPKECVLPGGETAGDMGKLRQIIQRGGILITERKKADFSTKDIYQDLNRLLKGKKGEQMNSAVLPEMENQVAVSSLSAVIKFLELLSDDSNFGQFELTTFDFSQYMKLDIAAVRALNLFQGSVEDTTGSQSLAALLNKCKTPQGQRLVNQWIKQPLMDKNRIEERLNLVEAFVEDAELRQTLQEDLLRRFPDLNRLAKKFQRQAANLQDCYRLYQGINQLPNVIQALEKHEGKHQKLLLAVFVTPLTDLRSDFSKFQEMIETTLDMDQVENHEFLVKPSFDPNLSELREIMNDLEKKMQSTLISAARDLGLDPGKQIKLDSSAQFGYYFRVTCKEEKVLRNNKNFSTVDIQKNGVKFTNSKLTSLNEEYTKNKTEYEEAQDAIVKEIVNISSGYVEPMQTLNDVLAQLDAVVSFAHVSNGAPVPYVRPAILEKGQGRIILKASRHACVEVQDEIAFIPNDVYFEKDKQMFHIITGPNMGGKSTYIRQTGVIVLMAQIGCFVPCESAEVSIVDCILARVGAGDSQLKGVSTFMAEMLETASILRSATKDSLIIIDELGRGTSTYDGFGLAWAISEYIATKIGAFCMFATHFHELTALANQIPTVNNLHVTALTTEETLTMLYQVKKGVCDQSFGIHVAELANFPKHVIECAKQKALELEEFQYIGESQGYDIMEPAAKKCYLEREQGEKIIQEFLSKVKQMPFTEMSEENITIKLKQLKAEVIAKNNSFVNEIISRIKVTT
UniProt P22033: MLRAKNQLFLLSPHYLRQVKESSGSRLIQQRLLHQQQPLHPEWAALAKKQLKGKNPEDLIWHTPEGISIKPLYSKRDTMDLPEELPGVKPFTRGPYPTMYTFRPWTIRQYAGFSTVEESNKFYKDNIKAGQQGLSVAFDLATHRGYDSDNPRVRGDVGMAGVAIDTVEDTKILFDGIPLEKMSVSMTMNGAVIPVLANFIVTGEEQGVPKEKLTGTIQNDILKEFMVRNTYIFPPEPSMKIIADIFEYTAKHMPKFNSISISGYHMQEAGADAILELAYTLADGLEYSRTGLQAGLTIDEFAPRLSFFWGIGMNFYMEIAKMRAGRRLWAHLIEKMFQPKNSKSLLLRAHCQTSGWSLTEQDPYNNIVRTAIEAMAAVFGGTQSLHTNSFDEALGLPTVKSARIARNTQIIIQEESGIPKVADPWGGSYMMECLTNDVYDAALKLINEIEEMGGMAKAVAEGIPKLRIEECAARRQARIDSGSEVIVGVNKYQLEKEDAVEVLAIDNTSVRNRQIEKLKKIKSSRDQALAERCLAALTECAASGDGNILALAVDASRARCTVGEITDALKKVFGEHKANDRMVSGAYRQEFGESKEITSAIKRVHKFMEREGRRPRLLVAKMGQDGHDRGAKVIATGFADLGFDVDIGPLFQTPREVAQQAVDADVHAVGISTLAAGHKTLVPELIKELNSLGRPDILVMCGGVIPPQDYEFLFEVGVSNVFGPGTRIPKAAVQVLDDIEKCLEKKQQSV
UniProt Q9UJ68: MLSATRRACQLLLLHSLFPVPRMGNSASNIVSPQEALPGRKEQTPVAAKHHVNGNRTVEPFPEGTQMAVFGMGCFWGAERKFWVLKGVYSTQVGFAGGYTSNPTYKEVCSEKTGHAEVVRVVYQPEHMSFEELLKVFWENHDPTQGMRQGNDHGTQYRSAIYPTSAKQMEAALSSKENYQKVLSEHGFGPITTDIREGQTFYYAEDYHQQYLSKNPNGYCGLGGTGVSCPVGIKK

Compound: Cc1cc(ccc1-c1ccccc1)C(=O)N1CCCN(CC1)C(=O)CCl [compound 10]
Assay: probe-labelled cysteine peptide fold change vs DMSO (competition) (log2 fold change); higher = less target engagement (more negative = stronger competition)
Conditions: THP-1, incubation time: 4 h
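Further: competitive profiling in live THP-1 cells: cysteine peptides tagged with an iodoacetamide desthiobiotin (IA-DTB) probe, intensity after compound treatment relative to DMSO-treated cells.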

Target	probe-labelled cysteine peptide fold change (10 µM)	probe-labelled cysteine peptide fold change (50 µM)
MVD_P53602_267_DSNQFHATCLDTFPPISYLNAISWR (UniProt P53602)	-0.508	0.125
MTR_Q99707_812_VIDLGVMTPCDK (UniProt Q99707)	-0.219	-0.788
MYBBP1A_Q9BQG0_890_RYCHDLGER (UniProt Q9BQG0)	0.104	0.125
MTHFD1_P11586_863_QGFGNLPICMAK (UniProt P11586)	-0.0793	-0.213
MYADM_Q96S97_279_DVSCSR (UniProt Q96S97)	-0.0569	-0.0282
MYCBP2_O75592_3364_ANALFLLSLSSAAEPSILCYHPAK (UniProt O75592)	-0.123	-0.248
MSH2_P43246_176_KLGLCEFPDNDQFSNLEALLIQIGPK (UniProt P43246)	-0.0909	-0.00623
MRPS30_Q9NP92_393_KNICWGTQSK (UniProt Q9NP92)	-0.162	-0.72
MTMR10_Q9NXD2_70_LICSNFK (UniProt Q9NXD2)	-0.125	-0.103
MTF2_Q9Y483_219_MLQCCK (UniProt Q9Y483)	0.0379	-0.212
MSH2_P43246_199_ECVLPGGETAGDMGK (UniProt P43246)	-0.0196	0.142
MTHFD1L_Q6UB35_778_EYTEENIQLVADGCCNLQK (UniProt Q6UB35)	-0.00955	-0.38
MYCBP2_O75592_4638_EELPHCPAGPK (UniProt O75592)	-0.0986	-0.513
MUT_P22033_433_VADPWGGSYMMECLTNDVYDAALK (UniProt P22033)	0.174	0.0326
MTIF2_P46199_646_KKVPVAGCR (UniProt P46199)	0.132	-0.272
MTR_Q99707_1153_ELWAYCGSEQLDVADLRR (UniProt Q99707)	-0.0511	-0.000183
MUT_P22033_540_CLAALTECAASGDGNILALAVDASR (UniProt P22033)	0.148	0.111
MTPAP_Q9NVV4_324_FSHQASGFQCDLTTNNR (UniProt Q9NVV4)	0.575	0.753
MYH9_P35579_1379_KMEDSVGCLETAEEVK (UniProt P35579)	0.118	0.13

Target	probe-labelled cysteine peptide fold change (10 µM)	probe-labelled cysteine peptide fold change (50 µM)
MTX2_O75431_189_TLDQVLEDVDQCCQALSQR (UniProt O75431)	-0.0127	-0.0536
MSH6_P52701_765_VDTCHTPFGK (UniProt P52701)	-0.0518	-0.0855
MYCBP2_O75592_4669+4672_QLEGTECPLHVVHPPTGEEFALGCGVCR (UniProt O75592)	-0.0938	0.0189
MYCBP2_O75592_4318_VDLHEGCGR (UniProt O75592)	0.12	0.319
MTSS1L_Q765P7_8_ECGALGGLFQAIVNDMK (UniProt Q765P7)	-0.144	-0.0778
MTREX_P42285_983_LEIDEETYLSSFKPHLMDVVYTWATGATFAHICK (UniProt P42285)	0.247	0.166
MSRA_Q9UJ68_74_TVEPFPEGTQMAVFGMGCFWGAER (UniProt Q9UJ68)	0.0191	0.487
MYH9_P35579_896_LQLQEQLQAETELCAEAEELRAR (UniProt P35579)	0.0422	-0.964
MSH6_P52701_1337_EVCLASER (UniProt P52701)	0.107	0.139
MTMR2_Q13614_284_CSQPMVGVSGK (UniProt Q13614)	-0.00239	-0.224
MTO1_Q9Y2Z2_707_TDQYLCDADR (UniProt Q9Y2Z2)	-0.58	-0.982
MTFR1_Q15390_89_EEGECSAR (UniProt Q15390)	-0.206	-0.545
MTPAP_Q9NVV4_412+419_CVIEGNNCTFVR (UniProt Q9NVV4)	-0.117	-0.121
MYH9_P35579_1379_MEDSVGCLETAEEVKR (UniProt P35579)	0.0621	-0.256
MYD88_Q99836_203_LCVSDRDVLPGTCVWSIASELIEKR (UniProt Q99836)	0.0807	-0.881
MYCBP2_O75592_4393_THPCGHPCGGVK (UniProt O75592)	-0.00693	-0.0775
MTM1_Q13496_242_CSQPLVGMSGK (UniProt Q13496)	0.0934	0.0327
MTG2_Q9H4K7_175_VVADLSCVGDEYIAALGGAGGK (UniProt Q9H4K7)	-0.145	-0.217
MYH9_P35579_896_LQLQEQLQAETELCAEAEELR (UniProt P35579)	0.0679	0.0431
